Laboratory results taken from patent US20160002701A1.
Results are given in words; binding and its absence hold for the method and conditions named. Some binding calls cover weakened binding; strength is not graded here.

The chains behind the UniProt entries cited, without tags or fusion partners. Residues count along the entry.
UniProt P35222, residues 2-781: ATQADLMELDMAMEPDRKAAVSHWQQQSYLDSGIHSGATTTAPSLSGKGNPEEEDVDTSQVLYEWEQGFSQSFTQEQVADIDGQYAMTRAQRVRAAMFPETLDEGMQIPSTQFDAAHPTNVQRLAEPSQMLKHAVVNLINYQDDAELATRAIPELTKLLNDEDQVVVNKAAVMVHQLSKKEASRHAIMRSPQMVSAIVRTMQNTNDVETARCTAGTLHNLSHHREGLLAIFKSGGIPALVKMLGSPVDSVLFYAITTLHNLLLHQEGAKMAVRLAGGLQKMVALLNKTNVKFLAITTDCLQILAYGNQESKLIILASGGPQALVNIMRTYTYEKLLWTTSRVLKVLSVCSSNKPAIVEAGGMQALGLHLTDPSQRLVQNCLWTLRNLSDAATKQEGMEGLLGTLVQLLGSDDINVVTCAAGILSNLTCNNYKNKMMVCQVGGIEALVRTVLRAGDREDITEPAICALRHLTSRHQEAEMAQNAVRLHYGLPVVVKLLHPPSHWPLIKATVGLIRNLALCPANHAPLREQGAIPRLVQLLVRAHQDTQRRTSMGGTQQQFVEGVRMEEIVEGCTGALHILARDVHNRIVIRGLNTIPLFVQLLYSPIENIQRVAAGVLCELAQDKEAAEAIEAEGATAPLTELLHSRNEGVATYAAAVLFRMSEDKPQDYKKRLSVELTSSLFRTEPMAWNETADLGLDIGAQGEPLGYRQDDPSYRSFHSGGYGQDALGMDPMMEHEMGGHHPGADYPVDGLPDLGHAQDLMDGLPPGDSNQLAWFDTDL
UniProt P12830, residues 155-882: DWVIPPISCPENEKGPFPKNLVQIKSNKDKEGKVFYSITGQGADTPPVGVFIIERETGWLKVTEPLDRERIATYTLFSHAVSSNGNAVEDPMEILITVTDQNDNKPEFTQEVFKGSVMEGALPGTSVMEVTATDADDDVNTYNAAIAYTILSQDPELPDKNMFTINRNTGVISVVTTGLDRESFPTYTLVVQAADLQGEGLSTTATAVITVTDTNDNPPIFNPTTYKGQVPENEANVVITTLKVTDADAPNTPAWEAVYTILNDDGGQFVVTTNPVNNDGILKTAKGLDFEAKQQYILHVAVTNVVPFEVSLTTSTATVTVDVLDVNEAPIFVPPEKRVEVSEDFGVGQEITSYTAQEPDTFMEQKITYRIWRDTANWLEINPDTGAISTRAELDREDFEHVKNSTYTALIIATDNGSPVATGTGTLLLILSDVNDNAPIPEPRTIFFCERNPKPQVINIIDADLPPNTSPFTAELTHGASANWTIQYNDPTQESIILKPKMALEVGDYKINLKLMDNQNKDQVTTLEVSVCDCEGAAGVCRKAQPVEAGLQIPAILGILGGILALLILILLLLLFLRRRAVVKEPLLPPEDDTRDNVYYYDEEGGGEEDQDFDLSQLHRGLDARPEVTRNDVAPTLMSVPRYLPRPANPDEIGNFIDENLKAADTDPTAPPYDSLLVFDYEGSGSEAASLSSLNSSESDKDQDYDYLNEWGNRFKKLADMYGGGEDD

What was measured:
β-catenin [1] = target: β-catenin (UniProt P35222); assay: in situ biotin ligase proximity assays, three schemes
β-catenin [2] = target: β-catenin (UniProt P35222); assay: in situ biotin ligase proximity assay with TSA benzofurazan deposition
β-catenin [3] = target: β-catenin (UniProt P35222); assay: in situ biotin ligase proximity assay with hapten labeled anti-antibody bridge, tonsil sample

Measured: binding

E-cadherin (from UniProt P12830 155-882)
binds: β-catenin [1] | β-catenin [2] | β-catenin [3]
